We go through one compound from patent US20080139574A1, “Novel quinoline derivatives” (CADILA HEALTHCARE LIMITED, priority 2006, published 2008).

One may read the AUC as the area under the concentration-time curve, a measure of exposure. Lower therefore signals less exposure. The term Cmax denotes the highest concentration seen after dosing. A word on the Tmax: it is the time at which the peak concentration occurs.

A short description of the data set: in vivo. The following applies: male, Sprague-Dawley, rat, plasma, po, 30 mg/kg.

In the case of `O=C(O)c1cn(C2CC2)c2cc(N3CCNCC3)c(F)cc2c1=O` [Ciprofloxacin, reference compound], the AUC came to 4650 ± 160 ng·h/mL, the Cmax is 1490 ± 220 ng/mL and the Tmax is 26.4 ± 12 min.
